This is an account of results in paper PMC7819943, “Rice protein-binding microarrays: a tool to detect cis-acting elements near promoter regions in rice”.

Protein sequences, listed by entry. Tags and fused reporters are not part of them.
UniProt Q0JBA9, entry or part of it: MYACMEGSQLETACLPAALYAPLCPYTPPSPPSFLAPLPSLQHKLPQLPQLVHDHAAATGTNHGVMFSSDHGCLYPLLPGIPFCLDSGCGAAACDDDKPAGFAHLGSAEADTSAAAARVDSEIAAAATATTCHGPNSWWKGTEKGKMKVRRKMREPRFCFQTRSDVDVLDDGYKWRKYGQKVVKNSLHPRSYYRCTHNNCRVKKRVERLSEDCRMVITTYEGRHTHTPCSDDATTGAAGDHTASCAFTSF

The other results are listed elsewhere or left out.

The target of this assay is OsWRKY34 (Oryza sativa, UniProt Q0JBA9 1-250). Description: protein-binding microarray (RPBM); PBS, 2% BSA, 51.3 ng/ul salmon testes DNA, 50 uM zinc acetate, 200 nM TF, 25 C, 1 h; high values mean tight binding. Particulars: protein: recombinant; tags: N-terminal polyhistidine and DsRed monomer fusion (pET32a); label: CyDye5-dUTP incorporated in the synthesized complementary strand; 3' TTTTT single-stranded linker to array surface; dsDNA, one strand shown. Summed up:
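Polyhistidine-tagged DsRed fusions of transcription factors, joined at the N-terminus, were expressed in E. coli BL21-CodonPlus and isolated on Ni–NTA. They were incubated at 200 nM for 1 h at 25 °C on a custom Agilent array, double-stranded and BSA-blocked, in PBS with 2% BSA, salmon testes DNA and 50 µM zinc acetate. The binding signal is per-feature fluorescence intensity (arbitrary units) read on an Axon 4000B scanner after washing.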
Take “TCCATCTCCTCCACACTCTTCTTCTTCTTCTACCTCTCCACGGAGTCACCTAGTGCAG”: the binding signal was 8040 fluorescence intensity (a.u.). The value for “GCCGCCACCGCCACCGCCACCGCCACGTCCAGCCTCCGGTCGGAGTCACCTAGTGCAG” was 8540 fluorescence intensity (a.u.); that for “TGCTGTGGGTTAATTCGCCTTTTTCACCTGTGGGCCGGGACGGAGTCACCTAGTGCAG” was 12400 fluorescence intensity (a.u.); that for “CCTCCATTCTTCAGTTTTAATGCATCCTCTTCATCACTTCCGGAGTCACCTAGTGCAG” was 11800 fluorescence intensity (a.u.). The value for “TCACGTTTTTCTCAGTGGCTTCTATTCTTTTTTTTTTCCCCGGAGTCACCTAGTGCAG” was 10500 fluorescence intensity (a.u.); that for “TTTTTTTCTGACTAGGATGCCACATCAGCGAAACCACCCACGGAGTCACCTAGTGCAG” was 8770 fluorescence intensity (a.u.).

Turning to “ACTTTTTAAATATGTTTGACCGTTCGTCTTATTCAAAAACCGGAGTCACCTAGTGCAG”, the binding signal is 9990 fluorescence intensity (a.u.). The value for “GCCTGGTATCGCTGCTGCTCTGGTTGTCTCTCGTCCTGAGCGGAGTCACCTAGTGCAG” was 9870 fluorescence intensity (a.u.); that for “TTATATGTCCTGAATTCCTGATGGTGTGGTAGTAGTGCGACGGAGTCACCTAGTGCAG” was 9530 fluorescence intensity (a.u.). Regarding “GACTAACCTGCCTAATTGTCACAGGTCCCACTAGTTCTTGCGGAGTCACCTAGTGCAG”, the binding signal is 8280 fluorescence intensity (a.u.). The value for “AAACTATATCATGCTACTTTAGGTATAAAACTAGTGTTTTCGGAGTCACCTAGTGCAG” was 8430 fluorescence intensity (a.u.); that for “GAATAAATAATCTCTTGTGAGCTCTCATACGCCACACATACGGAGTCACCTAGTGCAG” was 8820 fluorescence intensity (a.u.); that for “GCCTCACTGCCTCTACCTCGGCAGGCTCACTCACCTCGCTCGGAGTCACCTAGTGCAG” was 12600 fluorescence intensity (a.u.). As for “TCAGGGTGGGCAGGTTAACGGATGTTGATTGTTGGTGTGTCGGAGTCACCTAGTGCAG”, the figure is 11700 fluorescence intensity (a.u.).

Regarding “TTAATCTCTCATGCTTATGCTCATGGCAGCCGACGTCTCCCGGAGTCACCTAGTGCAG”, the binding signal was 8370 fluorescence intensity (a.u.). For “CATTTACAAATTTTGCCATTAATTCTTTTTTATGTTTCGCCGGAGTCACCTAGTGCAG”, the binding signal was 9010 fluorescence intensity (a.u.).

Consider “ACACCCTACCAGTTCATTACCAAAATTTTGACCAGAGACACGGAGTCACCTAGTGCAG”, for which the binding signal is 9240 fluorescence intensity (a.u.). As for “ATTGCCGTGAGCCCGTGACTACTCTTTACTCTTTCTTTTCCGGAGTCACCTAGTGCAG”, the figure is 13700 fluorescence intensity (a.u.); as for “AGATCAAGGCACCAAAGACTCTTCTTATACCTTTGTTTCACGGAGTCACCTAGTGCAG”, 8810 fluorescence intensity (a.u.); as for “TTTCTTTGTGATATTCTGGGACCTGTTATTTTTTGGCATTCGGAGTCACCTAGTGCAG”, 8880 fluorescence intensity (a.u.). On to “CTTCAGCTTCTCCATGGTTTTCTTTTTGTTTGCTCCAGCTCGGAGTCACCTAGTGCAG”, for which the binding signal was 8230 fluorescence intensity (a.u.). As for “AACTATATCTTAGTGTTTTGGGTTGGGACTAGTCTTATATCGGAGTCACCTAGTGCAG”, the figure is 11600 fluorescence intensity (a.u.). The value for “GACCACACCGTCGACTATGCGCGAGCGCCTGTCCACCATGCGGAGTCACCTAGTGCAG” was 9600 fluorescence intensity (a.u.); that for “TCCCACGATCCGATCCCTGCTCGATCTCTTCTACTACCGACGGAGTCACCTAGTGCAG” was 8940 fluorescence intensity (a.u.). The value for “ACTAATATACCGCTCCATTTTTCGTGCGAACTGTTTGTTTCGGAGTCACCTAGTGCAG” was 10900 fluorescence intensity (a.u.); that for “ACCACCACCACCACCGTCACCCAACTATTCTATTCTGAATCGGAGTCACCTAGTGCAG” was 8260 fluorescence intensity (a.u.); that for “ATGAAAGCTGTTTGGGTCGGGTTCACTAAATAGTCAGCAACGGAGTCACCTAGTGCAG” was 9010 fluorescence intensity (a.u.). Turning to “TTTTTATACTAGTACTACTACTAATCAGCTAATCAATCTCCGGAGTCACCTAGTGCAG”, the binding signal is 8120 fluorescence intensity (a.u.). The value for “AACCTTGCTCTACACCACAGCATATGTCTCCCATACAACACGGAGTCACCTAGTGCAG” was 8150 fluorescence intensity (a.u.). As for “ATGTGTTTTATCATAAAATTGTATTCTATTGTATTACTTACGGAGTCACCTAGTGCAG”, the figure is 10300 fluorescence intensity (a.u.); as for “CCTCCGCCGCGGCGACGTCGAGGGAATCGGGGCGGGGCCGCGGAGTCACCTAGTGCAG”, 10000 fluorescence intensity (a.u.).

Take “GCGCTTTCCTGCTCCCTTTTGGATTCAGTTACCATTCCGTCGGAGTCACCTAGTGCAG”: the binding signal was 8980 fluorescence intensity (a.u.). Regarding “ATATATGGCCTAGTCTCGCATCGATGAATTAAGTTGTAGTCGGAGTCACCTAGTGCAG”, the binding signal is 10400 fluorescence intensity (a.u.). The value for “CTGCCTGTTTTCCACACACGGCTTTGCCCGCCGCCACGATCGGAGTCACCTAGTGCAG” was 8310 fluorescence intensity (a.u.); that for “GGTTTCCCTGAGGCATTTATGTTTGACTTGTTACTGTATACGGAGTCACCTAGTGCAG” was 9300 fluorescence intensity (a.u.). For the sequence “TTGACCGAAAGTCATTGGTTTTTATCGGGTTTCATTCGGTCGGAGTCACCTAGTGCAG”, the binding signal is 8420 fluorescence intensity (a.u.). As for “GATAGTGTGTGTGTTTTGGGCTAGACTTTATCAAATAGAACGGAGTCACCTAGTGCAG”, the figure is 8400 fluorescence intensity (a.u.).

“TCGTAGAGATGCATCCAGGGTTTACATTACCGGTTGACCACGGAGTCACCTAGTGCAG”: the binding signal is 8740 fluorescence intensity (a.u.).

As to “CAGGTTATAAAACGTTTTGTCTTTAGTCAAAGTCAAACTACGGAGTCACCTAGTGCAG”, the binding signal was 8650 fluorescence intensity (a.u.). As for “ATCGCCGTCGTCTATTATTGTTGTGAAGGGTTGTTGGTTCCGGAGTCACCTAGTGCAG”, the figure is 9020 fluorescence intensity (a.u.).

As to “CTCATGTGCTATTCCCATTTCTAACGCGCATCCAGCACTACGGAGTCACCTAGTGCAG”, the binding signal was 10800 fluorescence intensity (a.u.).

In the case of “GCAGACCGCGCCTCCTATAAAAGCTTGCCACCACCGCGCGCGGAGTCACCTAGTGCAG”, the binding signal is 9030 fluorescence intensity (a.u.).
